This note sets out measurements from publication PMC6581859.

The target of this assay is CandA-C1 (BiFC fusion) (A. nidulans). The assay is described as follows: split reporter; BiFC microscopy in A. nidulans hyphae, wild-type background and csnE deletion strain; nuclei stained with H2A-RFP or DAPI.

These are yes or no findings as the source states them, for the method shown. Binding seen in cells or lysates may run through a third protein. A result given as binding can be weak or reduced; the word gives no strength. Sequences can lack the tags named with a protein.

B1: CandA-N (BiFC fusion) (protein, UniProt C8VP82 1-339)
chain: MGDRHTIQQNLNGLLSKLNDPDPDMRYMSLNDLYGILSNPCSSYLAHDQASATRLAEGLLKALDDQHGDVQNQALKCLGPLVARLPLEGLRTLLERLSNLTTSQTIDTSVPNTALRVIVTALPRPQPNQAPSPDANMAYSAVSEVLIPRLIGPGPHKRRGSVTKGMLEKDPAKGFSSDAIDVLIQVASCFGALLQESELTALEKAVMSIIDNDTAGTVVTKRALAAISALVVYFSDEQFGILVSELVERFNSPQLSTVHRRHLIAAVGCLARTVPAKFGPHLSTLAPFIFSAVGEDNLEVSHVLHYLCTSASNVYSSRNKPKIYHQYRQLPKEKLITGM
With B1, the binding entry is “binds”.

B2: CandA-C (BiFC fusion) (protein, UniProt Q5BAH2 1-1041)
chain: MSSDAMSDYSHDDEHDPQTDELRETALVTLEALISSCSSQMQSYLPNTINSALRFLKYDPNVADMGEDEEMSGTQDDGSEDDVTEEPDLEDDDFEDFEEEGGYSDIDDMSWKVRRCAAKLLYAVISTYGRGRALDDTSLYQQIAPAIVARFNKEREESVKLELVSTMDALVRKTAEGSMIMTSSGFLESVGSGSKISRKRRRQDSDASMIDFEPSMGTSSAAGTPLAAPSSPQSGPQSELANALPVIVRSLVTMWKQASIHLKQAIIILLKSLALVRYGGLADHLQQIEDPIADVLKSSLSGAPSASIGISASAGTLQIETLSLISAISETHASDALLPFLIALIPGVIVAVNDKNYKVSSEALAAVEQIVKALTPPRVTTASQDLIFQLEKLYDVSHSRITDTSADLEVRQRAIHVLGVLLARTSDEQGSAFLSFEKRSKGLVTLVDRLKNETTRLSAVRAIDDVAVLCSRKDDVDSNWVREVTAELGAQLRKSDRVLRSASLETLRSLSMNPNTRAHYDGETMKNLEECLIPLISVEDVHLLAPSLIIIAKLVPGNAQLLVNDGLVSAICSIVRTSLAGTVLKALLLLVKVIGEEGSGLTLMQNLLQDVGVNGDTSVVGRSIGTLLVHGGSNVGVRMEDFLSELQKTQDPQRQCLALAILGESALRLGASCSLTPNVFIPHFNSKSEKVRLASATALGNAAAGNVKAYLPTILGGLEKSDPQSYLLLHSVKELLQHPEMVRRDVAPSALKLWQALLVVSKEEDNRAMGAECVGRLALLDPPAYIPQFQEYLANGDAGIRSIVVSAFRFTLSDSRDVFNDVLRPLIVPLLVNMLSDRDLGNHRLALTTLNSAIHNKLALILPHLGELLPAVLGDTQIKPELIREVQMGPFKHKVDDGLELRKSAYETVYAALDTSFSLSHITELYSRILAGIDDEQDIRTICNLMTSKLITLAPEETQRHLDALSERYTAILNFKPKENAVKQEIEKAQEASTGVLKITRELSKAFPNAETMGDHHKWKAYMEMVRAQFGTQLSNLESEF
Regarding B2, the binding entry is listed as “binds”.
